In US20060257938A1, “Method of screening for drugs that block ligand binding to a lipid binding protein” (priority 2005, published 2006):

B1: 117S, 72A (protein, listed as Rattus norvegicus)
chain: AFDGTWKVDRNENYEKFMEKMGINVVKRKLGAHDNLKLTITQEGNKFTVKESSNFRNIDVVFELGVDFAYSAADGTELTGTWTMEGNKLVGKFKRVDNGKELIAVREISGNELIQTSTYEGVEAKRIFKKE
modifications: PEPTIDE (1)...(131) wild-type rat intestinal fatty acid binding protein
B2: 117W, 72A (protein, listed as Rattus norvegicus)
chain: AFDGTWKVDRNENYEKFMEKMGINVVKRKLGAHDNLKLTITQEGNKFTVKESSNFRNIDVVFELGVDFAYSAADGTELTGTWTMEGNKLVGKFKRVDNGKELIAVREISGNELIQTWTYEGVEAKRIFKKE
modifications: PEPTIDE (1)...(131) wild-type rat intestinal fatty acid binding protein
B3: 119A, 72A (protein, listed as Rattus norvegicus)
chain: AFDGTWKVDRNENYEKFMEKMGINVVKRKLGAHDNLKLTITQEGNKFTVKESSNFRNIDVVFELGVDFAYSAADGTELTGTWTMEGNKLVGKFKRVDNGKELIAVREISGNELIQTYTAEGVEAKRIFKKE
modifications: PEPTIDE (1)...(131) wild-type rat intestinal fatty acid binding protein
B4: 119C, 72A (protein, listed as Rattus norvegicus)
chain: AFDGTWKVDRNENYEKFMEKMGINVVKRKLGAHDNLKLTITQEGNKFTVKESSNFRNIDVVFELGVDFAYSAADGTELTGTWTMEGNKLVGKFKRVDNGKELIAVREISGNELIQTYTCEGVEAKRIFKKE
modifications: PEPTIDE (1)...(131) wild-type rat intestinal fatty acid binding protein
B5: 117E, 72A (protein, listed as Rattus norvegicus)
chain: AFDGTWKVDRNENYEKFMEKMGINVVKRKLGAHDNLKLTITQEGNKFTVKESSNFRNIDVVFELGVDFAYSAADGTELTGTWTMEGNKLVGKFKRVDNGKELIAVREISGNELIQTETYEGVEAKRIFKKE
modifications: PEPTIDE (1)...(131) wild-type rat intestinal fatty acid binding protein
B6: 117F, 72A (protein, listed as Rattus norvegicus)
chain: AFDGTWKVDRNENYEKFMEKMGINVVKRKLGAHDNLKLTITQEGNKFTVKESSNFRNIDVVFELGVDFAYSAADGTELTGTWTMEGNKLVGKFKRVDNGKELIAVREISGNELIQTFTYEGVEAKRIFKKE
modifications: PEPTIDE (1)...(131) wild-type rat intestinal fatty acid binding protein
B7: 117G, 72A (protein, listed as Rattus norvegicus)
chain: AFDGTWKVDRNENYEKFMEKMGINVVKRKLGAHDNLKLTITQEGNKFTVKESSNFRNIDVVFELGVDFAYSAADGTELTGTWTMEGNKLVGKFKRVDNGKELIAVREISGNELIQTGTYEGVEAKRIFKKE
modifications: PEPTIDE (1)...(131) wild-type rat intestinal fatty acid binding protein
B8: 117H, 72A (protein, listed as Rattus norvegicus)
chain: AFDGTWKVDRNENYEKFMEKMGINVVKRKLGAHDNLKLTITQEGNKFTVKESSNFRNIDVVFELGVDFAYSAADGTELTGTWTMEGNKLVGKFKRVDNGKELIAVREISGNELIQTHTYEGVEAKRIFKKE
modifications: PEPTIDE (1)...(131) wild-type rat intestinal fatty acid binding protein
B9: 117I, 72A (protein, listed as Rattus norvegicus)
chain: AFDGTWKVDRNENYEKFMEKMGINVVKRKLGAHDNLKLTITQEGNKFTVKESSNFRNIDVVFELGVDFAYSAADGTELTGTWTMEGNKLVGKFKRVDNGKELIAVREISGNELIQTITYEGVEAKRIFKKE
modifications: PEPTIDE (1)...(131) wild-type rat intestinal fatty acid binding protein
B10: 117K, 72A (protein, listed as Rattus norvegicus)
chain: AFDGTWKVDRNENYEKFMEKMGINVVKRKLGAHDNLKLTITQEGNKFTVKESSNFRNIDVVFELGVDFAYSAADGTELTGTWTMEGNKLVGKFKRVDNGKELIAVREISGNELIQTKTYEGVEAKRIFKKE
modifications: PEPTIDE (1)...(131) wild-type rat intestinal fatty acid binding protein
B11: 117L, 72A (protein, listed as Rattus norvegicus)
chain: AFDGTWKVDRNENYEKFMEKMGINVVKRKLGAHDNLKLTITQEGNKFTVKESSNFRNIDVVFELGVDFAYSAADGTELTGTWTMEGNKLVGKFKRVDNGKELIAVREISGNELIQTLTYEGVEAKRIFKKE
modifications: PEPTIDE (1)...(131) wild-type rat intestinal fatty acid binding protein
B12: 117N, 72A (protein, listed as Rattus norvegicus)
chain: AFDGTWKVDRNENYEKFMEKMGINVVKRKLGAHDNLKLTITQEGNKFTVKESSNFRNIDVVFELGVDFAYSAADGTELTGTWTMEGNKLVGKFKRVDNGKELIAVREISGNELIQTNTYEGVEAKRIFKKE
modifications: PEPTIDE (1)...(131) wild-type rat intestinal fatty acid binding protein
B13: 117P, 72A (protein, listed as Rattus norvegicus)
chain: AFDGTWKVDRNENYEKFMEKMGINVVKRKLGAHDNLKLTITQEGNKFTVKESSNFRNIDVVFELGVDFAYSAADGTELTGTWTMEGNKLVGKFKRVDNGKELIAVREISGNELIQTPTYEGVEAKRIFKKE
modifications: PEPTIDE (1)...(131) wild-type rat intestinal fatty acid binding protein
B14: 102D, 72A (protein, listed as Rattus norvegicus)
chain: AFDGTWKVDRNENYEKFMEKMGINVVKRKLGAHDNLKLTITQEGNKFTVKESSNFRNIDVVFELGVDFAYSAADGTELTGTWTMEGNKLVGKFKRVDNGKEDIAVREISGNELIQTYTYEGVEAKRIFKKE
modifications: PEPTIDE (1)...(131) wild-type rat intestinal fatty acid binding protein
B15: 117Q, 72A (protein, listed as Rattus norvegicus)
chain: AFDGTWKVDRNENYEKFMEKMGINVVKRKLGAHDNLKLTITQEGNKFTVKESSNFRNIDVVFELGVDFAYSAADGTELTGTWTMEGNKLVGKFKRVDNGKELIAVREISGNELIQTQTYEGVEAKRIFKKE
modifications: PEPTIDE (1)...(131) wild-type rat intestinal fatty acid binding protein
B16: 117R, 72A (protein, listed as Rattus norvegicus)
chain: AFDGTWKVDRNENYEKFMEKMGINVVKRKLGAHDNLKLTITQEGNKFTVKESSNFRNIDVVFELGVDFAYSAADGTELTGTWTMEGNKLVGKFKRVDNGKELIAVREISGNELIQTRTYEGVEAKRIFKKE
modifications: PEPTIDE (1)...(131) wild-type rat intestinal fatty acid binding protein
B17: 117T, 72A (protein, listed as Rattus norvegicus)
chain: AFDGTWKVDRNENYEKFMEKMGINVVKRKLGAHDNLKLTITQEGNKFTVKESSNFRNIDVVFELGVDFAYSAADGTELTGTWTMEGNKLVGKFKRVDNGKELIAVREISGNELIQTTTYEGVEAKRIFKKE
modifications: PEPTIDE (1)...(131) wild-type rat intestinal fatty acid binding protein
B18: 117V, 72A (protein, listed as Rattus norvegicus)
chain: AFDGTWKVDRNENYEKFMEKMGINVVKRKLGAHDNLKLTITQEGNKFTVKESSNFRNIDVVFELGVDFAYSAADGTELTGTWTMEGNKLVGKFKRVDNGKELIAVREISGNELIQTVTYEGVEAKRIFKKE
modifications: PEPTIDE (1)...(131) wild-type rat intestinal fatty acid binding protein
B19: 117Y, 72A (protein, listed as Rattus norvegicus)
chain: AFDGTWKVDRNENYEKFMEKMGINVVKRKLGAHDNLKLTITQEGNKFTVKESSNFRNIDVVFELGVDFAYSAADGTELTGTWTMEGNKLVGKFKRVDNGKELIAVREISGNELIQTYTYEGVEAKRIFKKE
modifications: PEPTIDE (1)...(131) wild-type rat intestinal fatty acid binding protein
B20: 119F, 72A (protein, listed as Rattus norvegicus)
chain: AFDGTWKVDRNENYEKFMEKMGINVVKRKLGAHDNLKLTITQEGNKFTVKESSNFRNIDVVFELGVDFAYSAADGTELTGTWTMEGNKLVGKFKRVDNGKELIAVREISGNELIQTYTFEGVEAKRIFKKE
modifications: PEPTIDE (1)...(131) wild-type rat intestinal fatty acid binding protein
B21: 102E, 72A (protein, listed as Rattus norvegicus)
chain: AFDGTWKVDRNENYEKFMEKMGINVVKRKLGAHDNLKLTITQEGNKFTVKESSNFRNIDVVFELGVDFAYSAADGTELTGTWTMEGNKLVGKFKRVDNGKEEIAVREISGNELIQTYTYEGVEAKRIFKKE
modifications: PEPTIDE (1)...(131) wild-type rat intestinal fatty acid binding protein
B22: 119G, 72A (protein, listed as Rattus norvegicus)
chain: AFDGTWKVDRNENYEKFMEKMGINVVKRKLGAHDNLKLTITQEGNKFTVKESSNFRNIDVVFELGVDFAYSAADGTELTGTWTMEGNKLVGKFKRVDNGKELIAVREISGNELIQTYTGEGVEAKRIFKKE
modifications: PEPTIDE (1)...(131) wild-type rat intestinal fatty acid binding protein

Assay: Baseline fluorescence ratio Ro of probe in absence of analyte
Conditions: baseline fluorescence ratio of probe

Going from B1 to B2, the Ro falls from 0.357 to 0.294.

Going from B3 to B4, the Ro rises from 0.304 to 0.679.

Same assay, conditions: baseline fluorescence ratio of probe, no fatty acid

Going from B5 to B6, the AvgOfRo falls from 0.20 to 0.19.

Compared with B7, B8 is lower in AvgOfRo: 0.36 for the first, 0.31 for the second.

Going from B9 to B10, the AvgOfRo rises from 0.14 to 0.19.

First: B11
Second: B12
The AvgOfRo of the first is lower: 0.11 for the first, 0.18 for the second.

B13 and B14 are the same in AvgOfRo: 0.41 for the first, 0.41 for the second.

Compared with B15, B16 is higher in AvgOfRo: 0.37 for the first, 0.41 for the second.

First: B1
Second: B17
The AvgOfRo of the first is higher: 0.36 for the first, 0.20 for the second.

Going from B18 to B2, the AvgOfRo rises from 0.16 to 0.29.

Compared with B19, B3 is higher in AvgOfRo: 0.18 for the first, 0.31 for the second.

First: B4
Second: B20
The AvgOfRo of the first is higher: 0.68 for the first, 0.20 for the second.

Compared with B21, B22 is lower in AvgOfRo: 0.41 for the first, 0.25 for the second.

Going from B5 to B8, the Ro rises from 0.196 to 0.311.

First: B9
Second: B15
The Ro of the first is lower: 0.133 for the first, 0.368 for the second.

Going from B1 to B17, the Ro falls from 0.357 to 0.197.

Compared with B18, B3 is higher in Ro: 0.153 for the first, 0.304 for the second.
